Test results reported in US20120129892A1, “NOVEL PHARMACEUTICALLY ACCEPTABLE SALTS OF 4-(1H-IMIDAZOL-4-[…])PYRIDINE AND THEIR THERAPEUTICAL USES” (BIOPROJET, priority 2009, published 2012).
Where a name gives a salt, the structure may show the parent alone. Some entries share one result that the patent states for a list of compounds.

Assay: hygroscopy: water uptake in a water-saturated atmosphere at room temperature
Assay type: physicochemical
Conditions: a few days in water-saturated atmosphere at room temperature

SMILES	water uptake, % of weight (listed as immethridine)	water uptake, % of weight (listed as dihydrobromide)
c1cc(Cc2c[nH]cn2)ccn1 [BP1.5375, 4-(1H-imidazol-4-yl-methyl)-pyridine]	50-130%	–
c1cc(Cc2c[nH]cn2)ccn1 [BP1.5375 (dibromhydrate salt)]	–	50-130%
